Data reported in the supplement of paper PMC8256030.
Where “and” joins values, the source holds several entries; their conditions need not be identical. Equal values may be shown once. Where a name gives a salt, the structure may show the parent alone. The list shows a part of the results. Repeats in this data set agree poorly, so a single value says little.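 HEK293T cells were given each compound shortly before transfection with a reporter in which red mCherry is followed by the SARS-CoV-2 frameshift element and then GFP in the −1 frame, so GFP appears only after frameshifting.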

tested on: HEK293T; experiment: percent viability (nuclei count) relative to control; higher = more viable cells; settings: 10 µM; 24 h

Row | SMILES | percent viability
1 | C=N[C@@H](C(=O)N[C@@H]1C(=O)N2[C@@H]1SC(C)(C)[C@@H]2C(=O)O)c1ccccc1 | 103%
2 | CCCC(CCC)C(=O)NCC(N)=O [valrocemide] | 257%
3 | CCCCCNCC(N)=O [milacemide] | 262%
4 | CC[C@H]1OC(=O)[C@H](C)[C@@H](O[C@H]2C[C@@](C)(OC)[C@@H](O)[C@H](C)O2)[C@H](C)[C@@H](O[C@@H]2O[C@H](C)C[C@H](N(C)C)[C@H]2O)[C@](C)(O)C[C@@H](C)/C(=N\OCOCCOC)[C@H](C)[C@@H](O)[C@]1(C)O [Roxithromycin] | 210%
5 | Cc1nnc(C(=O)NC(C)(C)c2nc(C(=O)NCc3ccc(F)cc3)c(O)c(=O)n2C)o1 [Raltegravir] | 270%
6 | Cn1c(C#N)ccc1-c1ccc2c(c1)C(C)(C)OC(=S)N2 [tanaproget] | 95.6%
7 | Oc1ccc(Cl)c2cccnc12 [cloxiquine] | 152%
8 | COc1ccc(C(=C(c2ccccc2)[N+](=O)[O-])c2ccc(OCCN3CCCC3)cc2)cc1 [nitromifene] | 437%
9 | C[C@]12C=CC(=O)C=C1CC[C@H]1[C@@H]3C[C@@H](O)[C@](O)(C(=O)CO)[C@@]3(C)C[C@H](O)[C@@]12F [triamcinolone] | 226% and 220%
10 | C[C@@H](O)[C@H]1C(=O)N2C(C(=O)O)=C(S[C@@H]3CN[C@H](C(=O)N(C)C)C3)[C@H](C)[C@H]12 | 159%
11 | COc1ccc(C(=O)Nc2ccccc2CCC2CCCCN2C)cc1 (stereo not given) [encainide] | 173%
12 | N=C(N)NC(=O)Cc1c(Cl)cccc1Cl | 111%
13 | COC(=O)[C@@H]1[C@H]2C[C@H]3c4[nH]c5ccccc5c4CCN3C[C@@H]2CC[C@@H]1O [Yohimbine·HCl] | 270%
14 | N[C@@H](Cc1c[nH]c2ccc(O)cc12)C(=O)O [oxitriptan] | 184%
15 | CN1C(C(=O)Nc2nccs2)=C(O)c2ccccc2S1(=O)=O [sudoxicam] | 369%
16 | COc1nc(C)nc(Cl)c1NC1=NCCN1 [moxonidine] | 96.2%
17 | CCC(CC)[C@H](NC(C)=O)[C@@H]1[C@H](O)[C@@H](C(=O)O)C[C@H]1NC(=N)N [Peramivir] | 275%
18 | C[C@H](Cc1ccc(O)c(O)c1)[C@@H](C)Cc1ccc(O)c(O)c1 [Actinex] | 13.7%
19 | CC[C@H](C)[C@@H]([C@@H](CC(=O)N1CCC[C@H]1[C@H](OC)[C@@H](C)C(=O)NCCc1ccccc1)OC)N(C)C(=O)[C@@H](NC(=O)[C@H](C(C)C)N(C)C)C(C)C [soblidotin] | 21.3%
20 | CO/N=C(\C(=O)N[C@@H]1C(=O)N2C(C(=O)O)=C(COC(N)=O)CS[C@H]12)c1ccco1 | 159%

Row | SMILES | percent viability
21 | CCOc1ccc2ccccc2c1C(=O)N[C@@H]1C(=O)N2[C@@H]1SC(C)(C)[C@@H]2C(=O)O [Unipen] | 124%
22 | NC(=O)Oc1ccc(Cc2ccccc2)cc1 [diphenan] | 115%
23 | COc1ccc(CC(C)(C)NC[C@H](O)c2cc(O)cc3c2OCC(=O)N3)cc1 [Olodaterol] | 147% and 292%
24 | Nc1ncnc2c1ncn2[C@@H]1O[C@H](CO)[C@@H](O)[C@H]1O | 182%
25 | C[C@]12CCC(=O)C=C1C=C[C@@H]1[C@@H]2CC[C@@]2(C)[C@H]1CC[C@@]21CCC(=O)O1 | 181%
26 | CCN(CC)CC(=O)OCC(=O)[C@@]1(O)CC[C@H]2[C@@H]3CCC4=CC(=O)C=C[C@]4(C)[C@H]3[C@@H](O)C[C@@]21C [prednisolamate] | 278%
27 | CC(=O)OCC(=O)[C@@]1(O)CC[C@H]2[C@@H]3CCC4=CC(=O)CC[C@]4(C)[C@H]3[C@@H](O)C[C@@]21C | 182%
28 | CC12CC3CC(C)(C1)CC(N)(C3)C2 [memantine] | 129% and 219%
29 | CC1(C)S[C@@H]2[C@H](NC(=O)C(C(=O)Oc3ccc4c(c3)CCC4)c3ccccc3)C(=O)N2[C@H]1C(=O)O (stereo not given in full) [carindacillin] | 131%
30 | CN(C(=O)CO/N=C(\c1ccccc1)c1ccc2c(c1)CN1CC(=O)NC1=N2)C1CCCCC1 [revizinone] | 158%
31 | CCCN1CCCC[C@H]1C(=O)Nc1c(C)cccc1C [ropivacaine] | 248%
32 | Cc1cc(N)c2cc(NC(=O)Nc3ccc4nc(C)cc(N)c4c3)ccc2n1 [aminoquinuride] | 424%
33 | CCCCCCCCCCCCCCCCCC(=O)OC[C@@H](O)[C@H]1OC[C@H](O)[C@H]1O [sorbitan stearate] | 162%
34 | COC(=O)[C@H]1[C@H]2C[C@@H]3c4[nH]c5cc(OC)ccc5c4CCN3C[C@H]2C[C@@H](OC(=O)c2cc(OC)c(OC)c(OC)c2)[C@@H]1OC [reserpine] | 154%
35 | CN1CCc2c(c3ccccc3n2Cc2ccccc2)C1 [mebhydrolin] | 303%
36 | OCc1cc(C(O)CNCCCCCCOCCCCc2ccccc2)ccc1O (stereo not given) [salmeterol] | 325%
37 | CC(=O)OCC(=O)[C@@]1(O)[C@@H](C)C[C@H]2[C@@H]3CCC4=CC(=O)C=C[C@]4(C)[C@@]3(F)[C@@H](O)C[C@@]21C | 298%
38 | NC[C@H]1O[C@H](O[C@H]2[C@H](O)[C@@H](O[C@H]3O[C@H](CO)[C@@H](O)[C@H](N)[C@H]3O)[C@H](N)C[C@@H]2N)[C@H](O)[C@@H](O)[C@@H]1O [Kantrex] | 40.9%
39 | Cc1cc(C)c(NC(=O)CN(CC(=O)O)CC(=O)O)c(C)c1Br [mebrofenin] | 144%
40 | COC(=O)C1=C(C)NC(C)=C(C(=O)OCCN(C)Cc2ccccc2)C1c1cccc([N+](=O)[O-])c1 (stereo not given) [nicardipine] | 142% and 244%

3 of these compounds, reformatted.

| Row | SMILES | percent viability |
| --- | --- | --- |
| 22 | NC(=O)Oc1ccc(Cc2ccccc2)cc1 [diphenan] | 115% |
| 30 | CN(C(=O)CO/N=C(\c1ccccc1)c1ccc2c(c1)CN1CC(=O)NC1=N2)C1CCCCC1 [revizinone] | 158% |
| 37 | CC(=O)OCC(=O)[C@@]1(O)[C@@H](C)C[C@H]2[C@@H]3CCC4=CC(=O)C=C[C@]4(C)[C@@]3(F)[C@@H](O)C[C@@]21C | 298% |
